{"sequences": {"note": "By UniProt entry, the sequences of proteins in these tests, tags left out. Where a name states a change or a piece, a line headed by the entry shows the natural chain unless it says otherwise.", "UniProt Q12882": "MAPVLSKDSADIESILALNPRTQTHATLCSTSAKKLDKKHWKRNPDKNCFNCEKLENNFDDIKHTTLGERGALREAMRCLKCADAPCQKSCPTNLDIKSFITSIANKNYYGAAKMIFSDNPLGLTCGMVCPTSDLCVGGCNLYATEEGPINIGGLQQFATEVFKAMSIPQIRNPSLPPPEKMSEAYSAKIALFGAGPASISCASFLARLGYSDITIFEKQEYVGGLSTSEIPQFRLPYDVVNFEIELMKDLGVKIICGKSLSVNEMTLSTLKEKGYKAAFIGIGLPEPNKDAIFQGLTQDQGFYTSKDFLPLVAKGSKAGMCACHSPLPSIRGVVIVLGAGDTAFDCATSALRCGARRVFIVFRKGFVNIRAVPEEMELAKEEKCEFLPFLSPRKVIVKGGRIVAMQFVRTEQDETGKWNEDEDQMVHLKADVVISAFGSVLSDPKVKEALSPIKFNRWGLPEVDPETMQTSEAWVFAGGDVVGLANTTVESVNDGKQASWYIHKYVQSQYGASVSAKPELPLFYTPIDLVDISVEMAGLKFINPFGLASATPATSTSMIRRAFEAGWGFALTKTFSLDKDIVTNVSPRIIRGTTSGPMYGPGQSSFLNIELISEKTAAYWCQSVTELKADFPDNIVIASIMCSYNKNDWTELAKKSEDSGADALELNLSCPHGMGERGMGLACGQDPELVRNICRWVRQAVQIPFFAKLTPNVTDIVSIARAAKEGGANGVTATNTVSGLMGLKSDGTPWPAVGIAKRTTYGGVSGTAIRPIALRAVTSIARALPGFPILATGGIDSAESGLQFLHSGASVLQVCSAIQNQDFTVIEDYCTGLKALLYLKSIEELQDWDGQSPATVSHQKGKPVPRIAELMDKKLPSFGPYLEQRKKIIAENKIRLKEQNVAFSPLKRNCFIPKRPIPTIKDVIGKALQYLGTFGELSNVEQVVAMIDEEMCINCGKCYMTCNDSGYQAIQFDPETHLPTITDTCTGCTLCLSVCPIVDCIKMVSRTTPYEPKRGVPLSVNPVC", "UniProt Q5JSL3": "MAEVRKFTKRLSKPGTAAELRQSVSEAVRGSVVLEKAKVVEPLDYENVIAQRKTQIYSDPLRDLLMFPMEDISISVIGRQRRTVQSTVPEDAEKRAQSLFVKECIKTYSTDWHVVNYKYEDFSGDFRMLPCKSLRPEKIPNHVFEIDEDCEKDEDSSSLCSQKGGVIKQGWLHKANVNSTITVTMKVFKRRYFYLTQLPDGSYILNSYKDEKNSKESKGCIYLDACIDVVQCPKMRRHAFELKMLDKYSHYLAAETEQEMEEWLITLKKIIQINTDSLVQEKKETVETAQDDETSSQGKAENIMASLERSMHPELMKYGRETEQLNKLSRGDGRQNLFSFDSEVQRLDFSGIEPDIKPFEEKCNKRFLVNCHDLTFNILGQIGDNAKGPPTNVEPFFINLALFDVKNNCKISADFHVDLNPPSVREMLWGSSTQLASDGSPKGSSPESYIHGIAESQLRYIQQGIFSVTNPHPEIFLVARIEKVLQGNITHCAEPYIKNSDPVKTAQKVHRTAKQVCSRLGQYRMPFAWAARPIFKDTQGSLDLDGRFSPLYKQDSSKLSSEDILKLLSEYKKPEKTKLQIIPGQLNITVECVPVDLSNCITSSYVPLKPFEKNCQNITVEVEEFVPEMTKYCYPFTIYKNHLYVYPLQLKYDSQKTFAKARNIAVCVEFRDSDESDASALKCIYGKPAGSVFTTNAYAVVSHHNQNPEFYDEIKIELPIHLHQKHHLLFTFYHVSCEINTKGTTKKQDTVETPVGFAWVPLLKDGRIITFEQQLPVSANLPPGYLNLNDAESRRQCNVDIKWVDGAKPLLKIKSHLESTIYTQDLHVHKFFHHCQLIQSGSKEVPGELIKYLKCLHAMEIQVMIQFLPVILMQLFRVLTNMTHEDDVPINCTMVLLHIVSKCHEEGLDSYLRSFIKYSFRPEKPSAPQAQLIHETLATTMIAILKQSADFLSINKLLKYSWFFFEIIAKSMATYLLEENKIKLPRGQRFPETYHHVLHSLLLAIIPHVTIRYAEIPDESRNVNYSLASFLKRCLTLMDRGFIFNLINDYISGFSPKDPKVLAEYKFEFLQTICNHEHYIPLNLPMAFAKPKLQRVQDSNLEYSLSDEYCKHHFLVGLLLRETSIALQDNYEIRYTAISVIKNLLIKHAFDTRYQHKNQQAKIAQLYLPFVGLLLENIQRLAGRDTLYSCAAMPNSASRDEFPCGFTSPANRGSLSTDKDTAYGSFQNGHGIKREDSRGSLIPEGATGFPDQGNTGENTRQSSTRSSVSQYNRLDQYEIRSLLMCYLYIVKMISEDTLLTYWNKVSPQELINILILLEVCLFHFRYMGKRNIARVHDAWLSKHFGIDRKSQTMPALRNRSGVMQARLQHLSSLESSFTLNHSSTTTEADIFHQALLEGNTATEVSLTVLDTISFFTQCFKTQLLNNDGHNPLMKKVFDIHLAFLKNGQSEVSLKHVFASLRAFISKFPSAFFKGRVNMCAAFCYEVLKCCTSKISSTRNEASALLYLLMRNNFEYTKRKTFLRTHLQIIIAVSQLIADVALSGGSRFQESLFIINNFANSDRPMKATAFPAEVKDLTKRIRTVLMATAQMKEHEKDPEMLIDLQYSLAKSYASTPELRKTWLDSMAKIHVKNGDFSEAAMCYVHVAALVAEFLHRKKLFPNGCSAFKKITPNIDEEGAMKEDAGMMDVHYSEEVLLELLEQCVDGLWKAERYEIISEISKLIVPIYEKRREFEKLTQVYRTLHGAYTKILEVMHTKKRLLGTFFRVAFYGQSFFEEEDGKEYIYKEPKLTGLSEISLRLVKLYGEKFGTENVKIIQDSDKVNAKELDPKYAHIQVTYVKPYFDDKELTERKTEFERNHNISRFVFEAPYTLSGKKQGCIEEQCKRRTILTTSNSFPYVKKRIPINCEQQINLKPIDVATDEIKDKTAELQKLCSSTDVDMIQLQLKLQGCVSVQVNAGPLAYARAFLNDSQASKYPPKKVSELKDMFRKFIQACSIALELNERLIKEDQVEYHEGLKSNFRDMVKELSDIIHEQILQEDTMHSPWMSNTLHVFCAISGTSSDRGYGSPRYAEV", "UniProt Q9Y6G9, whole entry": "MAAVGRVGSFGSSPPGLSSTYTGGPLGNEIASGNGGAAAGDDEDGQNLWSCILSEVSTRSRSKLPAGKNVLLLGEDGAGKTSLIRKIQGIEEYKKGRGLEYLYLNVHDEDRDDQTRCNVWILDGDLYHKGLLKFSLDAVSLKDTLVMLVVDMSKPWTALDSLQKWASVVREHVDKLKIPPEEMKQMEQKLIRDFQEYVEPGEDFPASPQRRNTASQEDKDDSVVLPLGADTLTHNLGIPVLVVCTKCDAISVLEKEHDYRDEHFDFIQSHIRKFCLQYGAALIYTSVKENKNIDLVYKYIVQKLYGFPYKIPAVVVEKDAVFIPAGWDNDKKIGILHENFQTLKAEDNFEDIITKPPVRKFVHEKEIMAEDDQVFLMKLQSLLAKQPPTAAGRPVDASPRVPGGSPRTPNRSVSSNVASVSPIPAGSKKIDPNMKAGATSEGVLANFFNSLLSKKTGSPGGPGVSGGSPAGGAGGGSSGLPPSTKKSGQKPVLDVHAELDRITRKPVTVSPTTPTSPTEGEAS", "UniProt Q9H147": "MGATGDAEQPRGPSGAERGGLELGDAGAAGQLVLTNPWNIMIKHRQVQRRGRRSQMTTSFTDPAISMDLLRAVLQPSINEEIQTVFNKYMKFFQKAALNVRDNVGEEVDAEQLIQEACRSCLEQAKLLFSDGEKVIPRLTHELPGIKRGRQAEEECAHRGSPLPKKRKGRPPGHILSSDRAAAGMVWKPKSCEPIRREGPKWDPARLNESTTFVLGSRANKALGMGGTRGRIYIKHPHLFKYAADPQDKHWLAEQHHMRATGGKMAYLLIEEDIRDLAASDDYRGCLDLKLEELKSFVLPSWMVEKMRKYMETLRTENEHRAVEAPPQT", "UniProt Q92608": "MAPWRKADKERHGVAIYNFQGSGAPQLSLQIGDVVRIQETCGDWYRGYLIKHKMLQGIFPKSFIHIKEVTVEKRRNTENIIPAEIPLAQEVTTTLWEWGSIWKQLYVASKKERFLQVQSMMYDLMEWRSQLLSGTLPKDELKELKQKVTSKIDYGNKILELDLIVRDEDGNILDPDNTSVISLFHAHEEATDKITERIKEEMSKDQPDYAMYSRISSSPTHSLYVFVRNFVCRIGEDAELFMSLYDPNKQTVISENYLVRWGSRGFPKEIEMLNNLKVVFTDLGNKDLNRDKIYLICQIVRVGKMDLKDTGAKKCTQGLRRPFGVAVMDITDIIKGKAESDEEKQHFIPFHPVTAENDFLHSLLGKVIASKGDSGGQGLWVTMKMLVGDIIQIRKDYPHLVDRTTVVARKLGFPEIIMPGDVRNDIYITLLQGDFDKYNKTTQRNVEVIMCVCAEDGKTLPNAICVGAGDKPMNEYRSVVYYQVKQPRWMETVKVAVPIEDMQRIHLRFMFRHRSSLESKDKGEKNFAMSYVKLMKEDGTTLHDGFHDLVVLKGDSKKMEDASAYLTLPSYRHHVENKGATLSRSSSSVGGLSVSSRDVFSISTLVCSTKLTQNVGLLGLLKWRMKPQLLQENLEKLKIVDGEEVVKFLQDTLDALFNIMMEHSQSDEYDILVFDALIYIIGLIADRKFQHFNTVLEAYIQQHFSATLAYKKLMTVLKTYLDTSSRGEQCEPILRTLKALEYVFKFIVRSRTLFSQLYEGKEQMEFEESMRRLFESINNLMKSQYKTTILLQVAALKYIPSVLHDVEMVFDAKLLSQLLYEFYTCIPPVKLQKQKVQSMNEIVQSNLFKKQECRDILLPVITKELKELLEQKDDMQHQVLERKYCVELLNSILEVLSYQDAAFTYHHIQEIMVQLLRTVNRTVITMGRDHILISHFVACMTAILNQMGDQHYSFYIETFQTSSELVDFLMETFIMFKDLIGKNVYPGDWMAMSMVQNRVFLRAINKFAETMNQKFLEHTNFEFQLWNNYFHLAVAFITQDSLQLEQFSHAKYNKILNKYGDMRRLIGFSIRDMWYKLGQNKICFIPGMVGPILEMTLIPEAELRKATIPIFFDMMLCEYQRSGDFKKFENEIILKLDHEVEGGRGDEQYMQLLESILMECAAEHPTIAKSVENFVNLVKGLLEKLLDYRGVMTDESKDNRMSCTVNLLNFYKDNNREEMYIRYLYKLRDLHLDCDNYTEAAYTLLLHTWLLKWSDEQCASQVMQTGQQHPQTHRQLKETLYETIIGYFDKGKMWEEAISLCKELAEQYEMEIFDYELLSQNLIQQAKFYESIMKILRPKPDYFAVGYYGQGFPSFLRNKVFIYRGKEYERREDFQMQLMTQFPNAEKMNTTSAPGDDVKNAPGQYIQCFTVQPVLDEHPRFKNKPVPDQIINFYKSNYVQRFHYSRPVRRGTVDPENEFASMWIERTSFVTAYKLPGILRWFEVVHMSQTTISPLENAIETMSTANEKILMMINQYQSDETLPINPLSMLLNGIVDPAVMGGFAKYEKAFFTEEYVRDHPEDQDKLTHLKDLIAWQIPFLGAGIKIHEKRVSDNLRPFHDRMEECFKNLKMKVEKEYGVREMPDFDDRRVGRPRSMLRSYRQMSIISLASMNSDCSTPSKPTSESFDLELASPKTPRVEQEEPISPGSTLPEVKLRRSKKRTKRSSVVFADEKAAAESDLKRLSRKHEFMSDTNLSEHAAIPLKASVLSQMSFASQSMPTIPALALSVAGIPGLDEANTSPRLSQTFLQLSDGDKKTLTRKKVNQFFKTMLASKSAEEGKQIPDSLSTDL"}, "source": "the supplement of paper PMC12067093", "about": "“Discovery and optimisation of a covalent ligand for TRIM25 and its application to targeted protein ubiquitination” (Chemical Science, 2025)", "compound": "Cc1cc(ccc1-c1ccccc1)C(=O)N1CCCN(CC1)C(=O)CCl [compound 10]", "test": "probe-labelled cysteine peptide fold change vs DMSO (competition) (log2 fold change); higher = less target engagement (more negative = stronger competition)", "settings": "THP-1, incubation time: 4 h", "note": "The other results are listed elsewhere or left out.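 Further: competitive profiling in live THP-1 cells: cysteine peptides tagged with an iodoacetamide desthiobiotin (IA-DTB) probe, intensity after compound treatment relative to DMSO-treated cells.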"}
{"target": "DPYD_Q12882_671_KSEDSGADALELNLSCPHGMGER (UniProt Q12882)", "values": [{"measurement": "probe-labelled cysteine peptide fold change", "setting": "10 µM", "result": 0.15}, {"measurement": "probe-labelled cysteine peptide fold change", "setting": "50 µM", "result": -0.266}]}
{"target": "DPYD_Q12882_82_CADAPCQK (UniProt Q12882)", "values": [{"measurement": "probe-labelled cysteine peptide fold change", "setting": "10 µM", "result": -0.14}, {"measurement": "probe-labelled cysteine peptide fold change", "setting": "50 µM", "result": -0.463}]}
{"target": "DOCK11_Q5JSL3_1204_DEFPCGFTSPANR (UniProt Q5JSL3)", "values": [{"measurement": "probe-labelled cysteine peptide fold change", "setting": "10 µM", "result": -0.081}, {"measurement": "probe-labelled cysteine peptide fold change", "setting": "50 µM", "result": -0.327}]}
{"target": "DOCK8_Q8NF50_170_QTFESETLECSEPAAQAGPR (UniProt Q8NF50)", "values": [{"measurement": "probe-labelled cysteine peptide fold change", "setting": "10 µM", "result": -0.095}, {"measurement": "probe-labelled cysteine peptide fold change", "setting": "50 µM", "result": -0.363}]}
{"target": "DTX3L_Q8TDB6_599_AMSYKPICPTCQTSYGIQK (UniProt Q8TDB6)", "values": [{"measurement": "probe-labelled cysteine peptide fold change", "setting": "10 µM", "result": 0.0315}, {"measurement": "probe-labelled cysteine peptide fold change", "setting": "50 µM", "result": -0.482}]}
{"target": "DYNC1H1_Q14204_867_SLETCMYDHK (UniProt Q14204)", "values": [{"measurement": "probe-labelled cysteine peptide fold change", "setting": "10 µM", "result": 0.0161}, {"measurement": "probe-labelled cysteine peptide fold change", "setting": "50 µM", "result": 0.032}]}
{"target": "DUSP27_Q5VZP5_81_ADAECPGMLESAEQLLVEDLYNR (UniProt Q5VZP5)", "values": [{"measurement": "probe-labelled cysteine peptide fold change", "setting": "10 µM", "result": -0.28}, {"measurement": "probe-labelled cysteine peptide fold change", "setting": "50 µM", "result": -0.329}]}
{"target": "DOCK5_Q9H7D0_627_DSFQIATLICSTK (UniProt Q9H7D0)", "values": [{"measurement": "probe-labelled cysteine peptide fold change", "setting": "10 µM", "result": 0.12}, {"measurement": "probe-labelled cysteine peptide fold change", "setting": "50 µM", "result": 0.118}]}
{"target": "DYNC1LI1_Q9Y6G9_247_CDAISVLEK (UniProt Q9Y6G9)", "values": [{"measurement": "probe-labelled cysteine peptide fold change", "setting": "10 µM", "result": 0.288}, {"measurement": "probe-labelled cysteine peptide fold change", "setting": "50 µM", "result": -0.0168}]}
{"target": "DNTTIP1_Q9H147_156_QAEEECAHR (UniProt Q9H147)", "values": [{"measurement": "probe-labelled cysteine peptide fold change", "setting": "10 µM", "result": -0.0863}, {"measurement": "probe-labelled cysteine peptide fold change", "setting": "50 µM", "result": -0.151}]}
{"target": "DOCK11_Q5JSL3_1110_VQDSNLEYSLSDEYCK (UniProt Q5JSL3)", "values": [{"measurement": "probe-labelled cysteine peptide fold change", "setting": "10 µM", "result": 0.0641}, {"measurement": "probe-labelled cysteine peptide fold change", "setting": "50 µM", "result": 0.252}]}
{"target": "DPYSL2_Q16555_248_AITIANQTNCPLYITK (UniProt Q16555)", "values": [{"measurement": "probe-labelled cysteine peptide fold change", "setting": "10 µM", "result": 0.0767}, {"measurement": "probe-labelled cysteine peptide fold change", "setting": "50 µM", "result": 0.199}]}
{"target": "DOCK2_Q92608_1203_MSCTVNLLNFYK (UniProt Q92608)", "values": [{"measurement": "probe-labelled cysteine peptide fold change", "setting": "10 µM", "result": -0.0626}, {"measurement": "probe-labelled cysteine peptide fold change", "setting": "50 µM", "result": 0.0461}]}
{"target": "DSCR3_O14972_187_GHLNSTNCVITQPLTGELVVESSEAAIR (UniProt O14972)", "values": [{"measurement": "probe-labelled cysteine peptide fold change", "setting": "10 µM", "result": 0.382}, {"measurement": "probe-labelled cysteine peptide fold change", "setting": "50 µM", "result": 0.313}]}
